PubChem BioAssay AID1259405, NCATS – 2018
Assay: 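Knock-downs that lift recombinant protein yield in hamster ovary cells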 (primary screen). Cells: Chinese hamster CHO-K1 ovary cells with stable secreted eGFP expression. Reagent: single siRNA against mouse genes, 0.8 pmol siRNA per well (2 µl of 400 nM stock). Time to read-out: 3 days. Read-out: 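Per-well intracellular GFP measured by laser scanning cytometry, plus viability from ATP luminescence, each relative to plate median of non-targeting control wells, in %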. Direction: GFP, % of control: higher = more GFP per well, higher productivity; viability (ATP), % of control: higher = more viable cells (more ATP). Active means: 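Called active when intracellular GFP, relative to negative control, is at or above 120%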.
The deposit covers about 50,000 reagents; shown is a part drawn at random. Of all reagents, about 4,000 (8%) are marked active. 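Mouse siRNA library applied to hamster cells; one well for each siRNA.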 Entries without a mark were called inactive. Reagents against one gene are numbered here.

Usp33 #1 → GFP, % of control: 124 (active); viability (ATP), % of control: 119
Usp33 #2 → GFP, % of control: 35.6; viability (ATP), % of control: 46.5
Usp33 #3 → GFP, % of control: 36.7; viability (ATP), % of control: 73.4
Nek7 → GFP, % of control: 53.4; viability (ATP), % of control: 70
Rpl32 #1 → GFP, % of control: 64.8; viability (ATP), % of control: 74.8
Rpl32 #2 → GFP, % of control: 58.5; viability (ATP), % of control: 33.7
Rpl32 #3 → GFP, % of control: 26.9; viability (ATP), % of control: 29.5
Cytip #1 → GFP, % of control: 81.7; viability (ATP), % of control: 87.5
Cytip #2 → GFP, % of control: 55.9; viability (ATP), % of control: 81.4
Cytip #3 → GFP, % of control: 62.8; viability (ATP), % of control: 77
Opcml #1 → GFP, % of control: 74.6; viability (ATP), % of control: 73.3
Opcml #2 → GFP, % of control: 49.1; viability (ATP), % of control: 57
Opcml #3 → GFP, % of control: 108; viability (ATP), % of control: 104
Ppp1ca #1 → GFP, % of control: 78.2; viability (ATP), % of control: 45.6
Ppp1ca #2 → GFP, % of control: 39.1; viability (ATP), % of control: 47.5
Ppp1ca #3 → GFP, % of control: 77.8; viability (ATP), % of control: 65.2
Kcna3 #1 → GFP, % of control: 102; viability (ATP), % of control: 53.3
Kcna3 #2 → GFP, % of control: 79.5; viability (ATP), % of control: 73
Kcna3 #3 → GFP, % of control: 80.3; viability (ATP), % of control: 82.6
Tmem86b #1 → GFP, % of control: 42.6; viability (ATP), % of control: 48.4
Tmem86b #2 → GFP, % of control: 144 (active); viability (ATP), % of control: 108
Ddx47 #1 → GFP, % of control: 91.1; viability (ATP), % of control: 73.3
Ddx47 #2 → GFP, % of control: 67.8; viability (ATP), % of control: 69.4
Ddx47 #3 → GFP, % of control: 258 (active); viability (ATP), % of control: 100
Nlrp14 #1 → GFP, % of control: 96; viability (ATP), % of control: 85
Nlrp14 #2 → GFP, % of control: 82.9; viability (ATP), % of control: 84.4
Nlrp14 #3 → GFP, % of control: 63.5; viability (ATP), % of control: 88.4

Just “viability (ATP), % of control” (2 entries from above):
Nlrp14 #1 = 85
Nlrp14 #2 = 84.4
